Holding throughout (assay): log2 fold change, soluble protein after heating vs DMSO (PISA); higher = thermal stabilisation; K562 cells, 10 uM, 30 min; active = over 0.2 and 3.5 SD of the protein, either way, in both replicates (recomputed)
Compound in test [1]: C1=CC=C(C=C1)[C@H](COC2=CC3=C(C=C2)NC(=O)N3)NC(=O)C4=CC=CN(C4=O)CC5=CC(=C(C=C5)F)F
The gist of the method:
(§1)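 Values are thermal stability changes relative to control samples and are taken from duplicates. They are stated as log2 fold changes. Before quantification by TMTpro 16plex LC-MS/MS with equalised channel sums, K562 cells at 2×10^6 cells/mL were treated with 10 μM compound for 30 min, heated in aliquots for 3 min across 48°C-58°C, pooled, extracted in PBS with 0.5% NP-40 at 4°C, and centrifuged at 21,000xg for 90 min to give the soluble supernatant.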

By UniProt entry, the sequences of proteins in these tests, tags left out. Where a name states a change or a piece, a line headed by the entry shows the natural chain unless it says otherwise.
UniProt Q8TEX9: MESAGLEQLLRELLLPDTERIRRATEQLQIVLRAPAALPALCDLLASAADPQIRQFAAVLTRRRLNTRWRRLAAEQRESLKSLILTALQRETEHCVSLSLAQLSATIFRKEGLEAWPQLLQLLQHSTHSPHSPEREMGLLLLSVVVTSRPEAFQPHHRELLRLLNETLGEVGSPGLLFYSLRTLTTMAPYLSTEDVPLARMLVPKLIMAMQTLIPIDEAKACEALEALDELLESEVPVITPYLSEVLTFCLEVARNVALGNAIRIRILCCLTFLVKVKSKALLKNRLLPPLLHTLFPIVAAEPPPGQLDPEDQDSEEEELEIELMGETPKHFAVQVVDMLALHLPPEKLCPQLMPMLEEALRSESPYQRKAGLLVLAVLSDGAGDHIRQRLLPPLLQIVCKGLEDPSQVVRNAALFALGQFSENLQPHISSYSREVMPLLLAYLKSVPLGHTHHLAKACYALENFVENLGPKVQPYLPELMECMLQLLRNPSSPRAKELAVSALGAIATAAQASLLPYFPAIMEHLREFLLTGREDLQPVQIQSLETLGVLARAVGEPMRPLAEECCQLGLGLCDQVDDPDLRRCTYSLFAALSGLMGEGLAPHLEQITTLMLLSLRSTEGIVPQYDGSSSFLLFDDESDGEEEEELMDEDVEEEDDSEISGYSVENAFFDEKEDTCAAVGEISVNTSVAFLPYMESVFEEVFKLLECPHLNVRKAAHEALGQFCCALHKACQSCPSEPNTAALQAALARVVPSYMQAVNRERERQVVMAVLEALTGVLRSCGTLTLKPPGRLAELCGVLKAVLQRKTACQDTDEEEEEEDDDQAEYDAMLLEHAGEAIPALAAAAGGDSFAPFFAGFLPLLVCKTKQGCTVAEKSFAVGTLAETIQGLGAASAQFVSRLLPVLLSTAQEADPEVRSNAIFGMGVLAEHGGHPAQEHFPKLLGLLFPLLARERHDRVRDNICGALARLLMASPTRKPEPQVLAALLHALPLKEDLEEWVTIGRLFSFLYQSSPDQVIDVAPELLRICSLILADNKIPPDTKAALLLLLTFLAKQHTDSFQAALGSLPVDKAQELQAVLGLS
UniProt Q75QN2, whole entry, looked up: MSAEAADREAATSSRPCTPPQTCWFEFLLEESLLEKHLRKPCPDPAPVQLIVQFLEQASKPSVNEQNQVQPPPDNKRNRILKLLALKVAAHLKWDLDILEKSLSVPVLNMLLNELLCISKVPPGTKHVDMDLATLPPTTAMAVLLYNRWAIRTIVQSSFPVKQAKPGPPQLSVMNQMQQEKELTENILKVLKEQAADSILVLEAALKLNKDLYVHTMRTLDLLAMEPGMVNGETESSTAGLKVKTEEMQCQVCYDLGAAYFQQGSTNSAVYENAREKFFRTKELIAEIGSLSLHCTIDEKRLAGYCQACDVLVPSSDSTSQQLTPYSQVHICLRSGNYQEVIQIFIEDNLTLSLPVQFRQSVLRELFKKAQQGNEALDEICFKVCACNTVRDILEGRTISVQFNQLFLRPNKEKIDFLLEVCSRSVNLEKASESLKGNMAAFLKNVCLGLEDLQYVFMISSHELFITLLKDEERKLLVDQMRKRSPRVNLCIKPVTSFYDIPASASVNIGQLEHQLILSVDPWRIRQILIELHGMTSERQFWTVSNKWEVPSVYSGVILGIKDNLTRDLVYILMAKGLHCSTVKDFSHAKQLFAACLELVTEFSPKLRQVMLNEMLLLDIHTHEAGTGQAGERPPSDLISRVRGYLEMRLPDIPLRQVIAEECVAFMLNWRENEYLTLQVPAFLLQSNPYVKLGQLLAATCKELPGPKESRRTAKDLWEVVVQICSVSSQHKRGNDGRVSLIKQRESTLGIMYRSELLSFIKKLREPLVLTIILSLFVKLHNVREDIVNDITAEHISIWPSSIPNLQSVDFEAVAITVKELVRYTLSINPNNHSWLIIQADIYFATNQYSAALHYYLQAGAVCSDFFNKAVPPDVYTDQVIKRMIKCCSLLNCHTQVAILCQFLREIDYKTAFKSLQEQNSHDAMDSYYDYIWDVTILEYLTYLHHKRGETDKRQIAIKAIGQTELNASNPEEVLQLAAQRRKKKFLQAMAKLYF
UniProt P48735: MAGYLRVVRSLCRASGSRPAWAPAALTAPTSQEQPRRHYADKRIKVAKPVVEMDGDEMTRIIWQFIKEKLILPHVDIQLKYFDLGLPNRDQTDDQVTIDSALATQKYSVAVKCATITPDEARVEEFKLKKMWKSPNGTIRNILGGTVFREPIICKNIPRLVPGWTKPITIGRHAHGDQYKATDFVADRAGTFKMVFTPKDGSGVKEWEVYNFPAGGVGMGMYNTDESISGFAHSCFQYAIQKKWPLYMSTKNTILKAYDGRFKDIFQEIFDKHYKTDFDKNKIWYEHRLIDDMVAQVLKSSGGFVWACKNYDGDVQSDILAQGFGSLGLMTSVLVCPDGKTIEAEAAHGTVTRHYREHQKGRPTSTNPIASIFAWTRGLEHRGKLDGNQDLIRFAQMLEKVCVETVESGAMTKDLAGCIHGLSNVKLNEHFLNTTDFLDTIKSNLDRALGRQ
UniProt O14732: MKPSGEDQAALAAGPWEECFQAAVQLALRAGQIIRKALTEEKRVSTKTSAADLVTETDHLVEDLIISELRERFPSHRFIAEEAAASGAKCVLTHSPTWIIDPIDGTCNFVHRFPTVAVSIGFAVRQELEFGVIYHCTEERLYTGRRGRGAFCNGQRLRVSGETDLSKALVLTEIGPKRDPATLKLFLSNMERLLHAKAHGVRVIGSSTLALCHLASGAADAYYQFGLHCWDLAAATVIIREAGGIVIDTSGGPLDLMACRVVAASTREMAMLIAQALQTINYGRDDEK
UniProt Q01628, whole entry, looked up: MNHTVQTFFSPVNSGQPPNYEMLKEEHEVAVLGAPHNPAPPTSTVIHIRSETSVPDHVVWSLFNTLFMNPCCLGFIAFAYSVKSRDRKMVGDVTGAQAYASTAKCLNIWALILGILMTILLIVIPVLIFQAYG
UniProt Q70UQ0: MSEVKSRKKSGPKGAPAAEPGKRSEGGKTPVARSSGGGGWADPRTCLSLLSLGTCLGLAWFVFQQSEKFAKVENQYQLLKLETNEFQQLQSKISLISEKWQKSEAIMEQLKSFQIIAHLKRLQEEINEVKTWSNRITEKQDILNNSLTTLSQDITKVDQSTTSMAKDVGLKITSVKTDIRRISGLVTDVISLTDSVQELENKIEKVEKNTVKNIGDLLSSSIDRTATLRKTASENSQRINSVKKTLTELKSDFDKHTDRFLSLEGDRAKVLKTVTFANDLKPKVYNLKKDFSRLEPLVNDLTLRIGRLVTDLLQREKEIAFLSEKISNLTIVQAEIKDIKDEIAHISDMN
UniProt Q14116, whole entry, looked up: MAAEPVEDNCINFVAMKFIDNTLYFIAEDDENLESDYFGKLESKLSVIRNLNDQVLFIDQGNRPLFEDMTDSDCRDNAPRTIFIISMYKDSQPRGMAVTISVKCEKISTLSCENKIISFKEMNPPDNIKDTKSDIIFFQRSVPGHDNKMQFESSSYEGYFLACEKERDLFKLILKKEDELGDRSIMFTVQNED
UniProt Q969P0: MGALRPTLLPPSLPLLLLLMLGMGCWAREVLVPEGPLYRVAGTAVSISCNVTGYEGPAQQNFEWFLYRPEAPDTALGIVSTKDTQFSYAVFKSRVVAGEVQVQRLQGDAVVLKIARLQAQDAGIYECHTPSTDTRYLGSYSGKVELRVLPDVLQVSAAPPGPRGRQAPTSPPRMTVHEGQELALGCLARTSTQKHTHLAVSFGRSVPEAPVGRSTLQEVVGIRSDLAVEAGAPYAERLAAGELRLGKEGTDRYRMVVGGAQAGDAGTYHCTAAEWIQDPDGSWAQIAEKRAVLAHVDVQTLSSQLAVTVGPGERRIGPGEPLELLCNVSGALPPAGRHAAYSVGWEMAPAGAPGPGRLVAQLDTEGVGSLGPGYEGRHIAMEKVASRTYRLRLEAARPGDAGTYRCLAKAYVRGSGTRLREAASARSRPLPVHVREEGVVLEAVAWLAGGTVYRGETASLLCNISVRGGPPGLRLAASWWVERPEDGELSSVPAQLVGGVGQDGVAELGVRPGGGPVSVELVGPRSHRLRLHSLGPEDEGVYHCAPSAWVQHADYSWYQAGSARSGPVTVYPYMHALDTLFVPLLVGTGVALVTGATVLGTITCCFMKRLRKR
UniProt O14920: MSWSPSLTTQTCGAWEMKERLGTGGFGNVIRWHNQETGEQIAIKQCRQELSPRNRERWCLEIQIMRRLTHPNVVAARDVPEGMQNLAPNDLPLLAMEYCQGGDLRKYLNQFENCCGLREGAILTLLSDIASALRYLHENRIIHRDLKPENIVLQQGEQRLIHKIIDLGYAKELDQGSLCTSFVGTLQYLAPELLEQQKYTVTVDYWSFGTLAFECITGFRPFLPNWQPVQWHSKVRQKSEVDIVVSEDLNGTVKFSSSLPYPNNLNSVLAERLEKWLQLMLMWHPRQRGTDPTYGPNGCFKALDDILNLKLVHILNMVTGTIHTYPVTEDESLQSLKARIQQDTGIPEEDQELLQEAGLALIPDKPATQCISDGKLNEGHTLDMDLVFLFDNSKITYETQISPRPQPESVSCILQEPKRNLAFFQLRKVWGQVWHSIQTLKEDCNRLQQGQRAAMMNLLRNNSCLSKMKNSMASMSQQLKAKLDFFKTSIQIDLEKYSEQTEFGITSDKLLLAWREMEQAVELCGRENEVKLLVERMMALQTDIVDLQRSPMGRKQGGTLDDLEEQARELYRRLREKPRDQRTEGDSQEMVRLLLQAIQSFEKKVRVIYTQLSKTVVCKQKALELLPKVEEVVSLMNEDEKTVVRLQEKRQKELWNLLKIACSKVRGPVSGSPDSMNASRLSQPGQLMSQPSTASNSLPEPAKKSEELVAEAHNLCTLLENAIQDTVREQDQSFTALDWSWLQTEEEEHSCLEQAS
UniProt P46940, whole entry, looked up: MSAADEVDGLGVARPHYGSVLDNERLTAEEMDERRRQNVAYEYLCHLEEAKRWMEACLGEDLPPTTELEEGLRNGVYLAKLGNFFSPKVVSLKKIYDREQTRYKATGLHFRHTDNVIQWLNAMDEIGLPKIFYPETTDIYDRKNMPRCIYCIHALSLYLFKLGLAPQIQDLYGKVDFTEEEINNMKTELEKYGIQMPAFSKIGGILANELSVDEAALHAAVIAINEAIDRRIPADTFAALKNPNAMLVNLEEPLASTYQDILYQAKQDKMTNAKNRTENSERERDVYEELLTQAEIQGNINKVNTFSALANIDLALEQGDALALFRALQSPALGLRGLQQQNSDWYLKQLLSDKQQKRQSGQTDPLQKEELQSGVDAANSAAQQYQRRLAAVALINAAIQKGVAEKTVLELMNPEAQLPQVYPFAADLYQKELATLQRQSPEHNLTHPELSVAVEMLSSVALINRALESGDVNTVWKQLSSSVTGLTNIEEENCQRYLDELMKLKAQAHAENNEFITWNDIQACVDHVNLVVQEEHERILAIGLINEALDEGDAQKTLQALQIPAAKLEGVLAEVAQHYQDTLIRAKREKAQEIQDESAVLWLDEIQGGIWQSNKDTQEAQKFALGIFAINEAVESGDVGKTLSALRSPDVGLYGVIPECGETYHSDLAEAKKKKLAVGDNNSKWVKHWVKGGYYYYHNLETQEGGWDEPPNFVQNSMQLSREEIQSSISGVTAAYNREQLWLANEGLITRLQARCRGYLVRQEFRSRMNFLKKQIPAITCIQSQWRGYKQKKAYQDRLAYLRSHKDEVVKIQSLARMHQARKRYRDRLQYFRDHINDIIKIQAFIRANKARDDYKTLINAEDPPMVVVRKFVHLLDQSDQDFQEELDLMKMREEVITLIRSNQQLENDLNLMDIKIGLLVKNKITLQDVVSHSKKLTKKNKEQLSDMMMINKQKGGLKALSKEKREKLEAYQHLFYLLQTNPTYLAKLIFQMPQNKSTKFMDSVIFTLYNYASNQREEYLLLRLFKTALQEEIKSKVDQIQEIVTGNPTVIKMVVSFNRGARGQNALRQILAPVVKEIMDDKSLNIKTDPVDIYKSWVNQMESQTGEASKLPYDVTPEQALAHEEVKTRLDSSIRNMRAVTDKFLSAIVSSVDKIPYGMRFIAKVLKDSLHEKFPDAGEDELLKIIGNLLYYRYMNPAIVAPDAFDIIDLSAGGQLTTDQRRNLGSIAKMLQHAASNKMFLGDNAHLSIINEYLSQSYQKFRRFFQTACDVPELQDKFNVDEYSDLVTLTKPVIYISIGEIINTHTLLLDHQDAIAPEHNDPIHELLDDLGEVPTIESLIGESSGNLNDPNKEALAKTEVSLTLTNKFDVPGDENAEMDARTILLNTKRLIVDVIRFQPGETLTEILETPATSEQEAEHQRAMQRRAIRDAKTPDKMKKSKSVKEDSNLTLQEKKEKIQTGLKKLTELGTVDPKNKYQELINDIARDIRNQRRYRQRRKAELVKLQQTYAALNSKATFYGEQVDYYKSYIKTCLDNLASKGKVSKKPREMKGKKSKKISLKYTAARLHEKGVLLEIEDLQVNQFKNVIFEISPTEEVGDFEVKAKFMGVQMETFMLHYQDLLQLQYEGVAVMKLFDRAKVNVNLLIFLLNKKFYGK

Compound in test [2]: CC1=C(SC2=C1C(=N[C@H](C3=NN=C(N32)C)CC(=O)N)C4=CC=C(C=C4)Cl)C
In a few lines: as §1

Compound in test [3]: CC1=C2C(=CC=C1)N=C(N(C2=O)C3=CC=CC=C3C)CN4C=NC5=C(N=CN=C54)N
In a few lines:
as §1

Compound in test [4]: Cc1sc2c(c1C)C(c1ccc(Cl)cc1)=N[C@@H](CC(=O)OC(C)(C)C)c1nnc(C)n1-2
The gist of the method: as §1

Compound in test [5]: c1ccc([C@@H]2C[C@H]2NC2CCNCC2)cc1
The gist of the method:
as §1

The other results are listed elsewhere or left out.

log2 fold change data for 26 targets are collected here from the supplement of paper PMC10849652.

As to ILVBL (UniProt A1L0T0), the log2 fold change in test [1] was inactive: -0.016; in test [2], active: 0.371; in test [3], inactive: 0.075; in test [4], inactive: -0.067; in test [5] it was inactive: -0.127.

For IPO4 isoform 2 (UniProt Q8TEX9), the log2 fold change in test [1] was inactive: -0.036; in test [2], inactive: -0.051; in test [3], inactive: -0.016; in test [4] it was inactive: 0.056; in test [5], inactive: 0.009.

INTS8 (UniProt Q75QN2): the log2 fold change is inactive: -0.192 in test [1]; inactive: 0.078 in test [2]; inactive: 0.101 in test [3]; inactive: 0.087 in test [4]; inactive: 0.028 in test [5].

IMPAD1 (UniProt Q9NX62): the log2 fold change in test [1] is inactive: -0.002; in test [2], inactive: 0.016; in test [3], inactive: 0.056; in test [4] it was inactive: -0.021; in test [5] it was inactive: 0.067.

For IDH2 (UniProt P48735), the log2 fold change in test [1] was inactive: 0.027; in test [2], inactive: 0.041; in test [3] it was inactive: 0.018; in test [4], inactive: 0.004; in test [5] it was inactive: 0.

On to ITPA (UniProt Q9BY32), for which the log2 fold change is inactive: 0.039 in test [1]; inactive: 0.082 in test [2]; inactive: -0.005 in test [3]; inactive: -0.026 in test [4]; inactive: -0.007 in test [5].

For IPP (UniProt Q9Y573), the log2 fold change in test [1] is inactive: 0.065.

With ITGA5 (UniProt P08648), the log2 fold change in test [1] is inactive: 0.005; in test [2], inactive: 0.069; in test [3], inactive: 0.016; in test [4], inactive: -0.024; in test [5], inactive: 0.026.

Take ILF3 (UniProt Q12906): in test [1], the log2 fold change is inactive: 0.06.

As for IMPA2 (UniProt O14732), the log2 fold change in test [1] was inactive: -0.018; in test [2], inactive: -0.052; in test [3] it was inactive: -0.05; in test [4], inactive: -0.212; in test [5], inactive: -0.071.

On to IFT74 (UniProt Q96LB3), for which the log2 fold change in test [1] was inactive: 0.134; in test [2], inactive: 0.11; in test [3], inactive: 0.163; in test [4], inactive: 0.003; in test [5] it was inactive: -0.069.

Regarding IFITM3 (UniProt Q01628), the log2 fold change was inactive: 0.038 in test [1]; inactive: -0.024 in test [2]; inactive: -0.06 in test [3]; inactive: 0.081 in test [4]; inactive: -0.014 in test [5].

As to IKBIP (UniProt Q70UQ0), the log2 fold change in test [1] was inactive: 0.034; in test [2] it was inactive: 0.007; in test [3], inactive: 0.025; in test [4] it was inactive: 0.07; in test [5], inactive: 0.005.

For ITM2B (UniProt Q9Y287), the log2 fold change in test [1] was inactive: 0.013; in test [2] it was inactive: -0.068; in test [3], inactive: 0.061; in test [4], inactive: -0.028; in test [5], inactive: -0.112.

Consider IREB2 (UniProt P48200), for which the log2 fold change is inactive: -0.021 in test [1]; inactive: 0.047 in test [2]; inactive: -0.026 in test [3]; inactive: 0.004 in test [4]; inactive: -0.034 in test [5].

For IST1 isoform 5 (UniProt P53990), the log2 fold change in test [1] is inactive: -0.057; in test [2], inactive: 0.023; in test [3], inactive: 0.071; in test [4], inactive: -0.015; in test [5], inactive: -0.034.

Consider IMMT isoform 2 (UniProt Q16891), for which the log2 fold change in test [1] is inactive: 0.021; in test [2] it was inactive: 0.029; in test [3], inactive: 0.035; in test [4] it was inactive: 0.091; in test [5], inactive: 0.033.

For the target ITCH (UniProt Q96J02), the log2 fold change is inactive: -0.063 in test [1]; inactive: -0.011 in test [2]; inactive: -0.064 in test [3]; inactive: 0.038 in test [4]; inactive: -0.024 in test [5].

With IL18 (UniProt Q14116), the log2 fold change in test [1] is inactive: -0.007; in test [2], inactive: 0.055; in test [3], inactive: 0.096; in test [4] it was inactive: -0.008; in test [5] it was inactive: 0.001.

As for IDH3A (UniProt P50213), the log2 fold change in test [1] is inactive: -0.029; in test [2] it was inactive: 0.018; in test [3], inactive: 0.026; in test [4], inactive: -0.025; in test [5], inactive: -0.005.

As for INTS10 (UniProt Q9NVR2), the log2 fold change in test [1] is inactive: -0.012; in test [2], inactive: 0.084; in test [3], inactive: 0.012; in test [4] it was inactive: -0.138; in test [5], inactive: -0.021.

Consider IFT80 isoform 3 (UniProt Q9P2H3), for which the log2 fold change in test [1] was inactive: -0.011; in test [2], inactive: 0.052; in test [3] it was inactive: 0.083; in test [4], inactive: -0.036; in test [5], inactive: -0.027.

In the case of IGSF8 (UniProt Q969P0), the log2 fold change in test [1] is inactive: -0.04; in test [2] it was inactive: 0.075; in test [3], inactive: -0.057; in test [4], inactive: -0.082; in test [5], inactive: -0.059.

With IGHA1 (UniProt P01876), the log2 fold change in test [1] is inactive: -0.138; in test [2] it was inactive: 0.113; in test [3] it was inactive: -0.196; in test [4], inactive: -0.082; in test [5], inactive: 0.142.

As to IKBKB (UniProt O14920), the log2 fold change in test [1] is inactive: 0.1; in test [2], inactive: -0.32; in test [3], inactive: 0.34; in test [4], inactive: 0.108; in test [5], inactive: -0.081.

Turning to IQGAP1 (UniProt P46940), the log2 fold change in test [1] was inactive: -0.065; in test [2], inactive: 0.066; in test [3], inactive: 0.043; in test [4], inactive: 0.008; in test [5] it was inactive: -0.038.
